# According to the supplement of paper PMC8728848:
# The other results are listed elsewhere or left out.
# Assays:
# Assay in all cases: glycan array binding signal (z-score within array); higher = stronger binding
# Settings in all cases: glycan notation: IUPAC condensed, linker removed
# [1] = biological target: Neu5Ac(a2-6)Gal(b1-4)GlcNAc(b1-2)Man(a1-3)[GlcNAc(b1-4)][Neu5Ac(a2-6)Gal(b1-4)GlcNAc(b1-2)Man(a1-6)]Man(b1-4)GlcNAc(b1-4)GlcNAc
# Procedure, shortened: (§1)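 The Consortium for Functional Glycomics database supplied 3228 glycan arrays, of which those lacking an available protein sequence were dropped. The binding signal, a within-array Z-score, was averaged across arrays of the same protein sequence and across linkers. Negative scores can be read as non-binding.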
# [2] = biological target: Neu5Ac(a2-6)Gal(b1-4)GlcNAc(b1-2)Man(a1-3)[Man(a1-6)]Man(b1-4)GlcNAc(b1-4)GlcNAc
# Procedure, shortened: as §1
# [3] = biological target: Neu5Ac(a2-6)Gal(b1-4)GlcNAc(b1-2)Man(a1-3)[Neu5Ac(a2-3)Gal(b1-4)GlcNAc(b1-2)Man(a1-6)]Man(b1-4)GlcNAc(b1-4)GlcNAc
# Procedure, shortened: as §1
# [4] = biological target: Neu5Ac(a2-6)Gal(b1-4)GlcNAc(b1-2)Man(a1-3)[Neu5Ac(a2-6)Gal(b1-4)GlcNAc(b1-2)Man(a1-6)]Man(b1-4)GlcNAc(b1-4)GlcNAc
# Procedure, shortened: as §1
# [5] = biological target: Neu5Ac(a2-6)Gal(b1-4)GlcNAc(b1-2)Man(a1-3)[Neu5Ac(a2-6)Gal(b1-4)GlcNAc(b1-2)Man(a1-6)]Man(b1-4)GlcNAc(b1-4)[Fuc(a1-6)]GlcNAc
# Procedure, shortened: as §1
# [6] = biological target: Neu5Ac(a2-6)Gal(b1-4)GlcNAc(b1-2)Man(a1-6)Man(b1-4)GlcNAc(b1-4)GlcNAc
# Procedure, shortened: as §1
# [7] = biological target: Neu5Ac(a2-6)Gal(b1-4)GlcNAc(b1-2)Man(a1-6)[Gal(b1-4)GlcNAc(b1-2)Man(a1-3)]Man(b1-4)GlcNAc(b1-4)GlcNAc
# Procedure, shortened: as §1
# [8] = biological target: Neu5Ac(a2-6)Gal(b1-4)GlcNAc(b1-2)Man(a1-6)[GlcNAc(b1-2)Man(a1-3)]Man(b1-4)GlcNAc(b1-4)GlcNAc
# Procedure, shortened: as §1
# [9] = biological target: Neu5Ac(a2-6)Gal(b1-4)GlcNAc(b1-2)Man(a1-6)[Man(a1-3)]Man(b1-4)GlcNAc(b1-4)GlcNAc
# Procedure, shortened: as §1
# [10] = biological target: Neu5Ac(a2-6)Gal(b1-4)GlcNAc(b1-2)[Neu5Ac(a2-6)Gal(b1-4)GlcNAc(b1-4)]Man(a1-3)[GlcNAc(b1-4)][Neu5Ac(a2-6)Gal(b1-4)GlcNAc(b1-2)[Neu5Ac(a2-6)Gal(b1-4)GlcNAc(b1-6)]Man(a1-6)]Man(b1-4)GlcNAc(b1-4)GlcNAc
# Procedure, shortened: as §1
# [11] = biological target: Neu5Ac(a2-6)Gal(b1-4)GlcNAc(b1-2)[Neu5Ac(a2-6)Gal(b1-4)GlcNAc(b1-4)]Man(a1-3)[GlcNAc(b1-4)][Neu5Ac(a2-6)Gal(b1-4)GlcNAc(b1-4)Man(a1-6)]Man(b1-4)GlcNAc(b1-4)GlcNAc
# Procedure, shortened: as §1
# [12] = biological target: Neu5Ac(a2-6)Gal(b1-4)GlcNAc(b1-2)[Neu5Ac(a2-6)Gal(b1-4)GlcNAc(b1-6)]Man(a1-6)[Neu5Ac(a2-6)Gal(b1-4)GlcNAc(b1-2)Man(a1-3)][GlcNAc(b1-4)]Man(b1-4)GlcNAc(b1-4)GlcNAc
# Procedure, shortened: as §1
# [13] = biological target: Neu5Ac(a2-6)Gal(b1-4)GlcNAc(b1-3)Gal(b1-3)GlcNAc
# Procedure, shortened: as §1
# [14] = biological target: Neu5Ac(a2-6)Gal(b1-4)GlcNAc(b1-3)Gal(b1-4)GlcNAc
# Procedure, shortened: as §1
# [15] = biological target: Neu5Ac(a2-6)Gal(b1-4)GlcNAc(b1-3)Gal(b1-4)GlcNAc(b1-2)Man(a1-3)[Neu5Ac(a2-6)Gal(b1-4)GlcNAc(b1-3)Gal(b1-4)GlcNAc(b1-2)Man(a1-6)]GalNAc
# Procedure, shortened: as §1
# [16] = biological target: Neu5Ac(a2-6)Gal(b1-4)GlcNAc(b1-3)Gal(b1-4)GlcNAc(b1-3)Gal(b1-4)GlcNAc
# Procedure, shortened: as §1
# [17] = biological target: Neu5Ac(a2-6)Gal(b1-4)GlcNAc(b1-3)Gal(b1-4)GlcNAc(b1-3)Gal(b1-4)GlcNAc(b1-2)Man(a1-3)[Neu5Ac(a2-6)Gal(b1-4)GlcNAc(b1-3)Gal(b1-4)GlcNAc(b1-3)Gal(b1-4)GlcNAc(b1-2)Man(a1-6)]GalNAc
# Procedure, shortened: as §1
# [18] = biological target: Neu5Ac(a2-6)Gal(b1-4)GlcNAc(b1-3)Gal(b1-4)GlcNAc(b1-3)GalNAc
# Procedure, shortened: as §1
# [19] = biological target: Neu5Ac(a2-6)Gal(b1-4)GlcNAc(b1-3)Gal(b1-4)GlcNAc(b1-3)[Neu5Ac(a2-6)Gal(b1-4)GlcNAc(b1-3)Gal(b1-4)GlcNAc(b1-6)]GalNAc
# Procedure, shortened: as §1
# [20] = biological target: Neu5Ac(a2-6)Gal(b1-4)GlcNAc(b1-3)Gal(b1-4)GlcNAc(b1-6)[Gal(b1-3)]GalNAc
# Procedure, shortened: as §1
# [21] = biological target: Neu5Ac(a2-6)Gal(b1-4)GlcNAc(b1-3)Gal(b1-4)[Fuc(a1-3)]GlcNAc(b1-3)Gal(b1-4)[Fuc(a1-3)]GlcNAc
# Procedure, shortened: as §1
# [22] = biological target: Neu5Ac(a2-6)Gal(b1-4)GlcNAc(b1-3)GalNAc
# Procedure, shortened: as §1
# [23] = biological target: Neu5Ac(a2-6)Gal(b1-4)GlcNAc(b1-3)[Neu5Ac(a2-6)Gal(b1-4)GlcNAc(b1-6)]GalNAc
# Procedure, shortened: as §1
# [24] = biological target: Neu5Ac(a2-6)Gal(b1-4)GlcNAc(b1-6)GalNAc
# Procedure, shortened: as §1
# [25] = biological target: Neu5Ac(a2-6)Gal(b1-4)GlcNAc(b1-6)[Gal(b1-3)GlcNAc(b1-3)]Gal(b1-4)Glc
# Procedure, shortened: as §1
# [26] = biological target: Neu5Ac(a2-6)Gal(b1-4)GlcNAc(b1-6)[Gal(b1-3)]GalNAc
# Procedure, shortened: as §1
# [27] = biological target: Neu5Ac(a2-6)Gal(b1-4)GlcNAc6S
# Procedure, shortened: as §1
# Neu5Ac(a2-6)GalNAc = biological target: Neu5Ac(a2-6)GalNAc
# Procedure, shortened: as §1
# [28] = biological target: Neu5Ac(a2-6)GalNAc(b1-4)GlcNAc
# Procedure, shortened: as §1
# [29] = biological target: Neu5Ac(a2-6)GalNAc(b1-4)GlcNAc6S
# Procedure, shortened: as §1
# [30] = biological target: Neu5Ac(a2-6)GlcNAc(b1-4)GlcNAc
# Procedure, shortened: as §1
binder,measurement,setting,value
"XTP3-B-MRH1 (Homo sapiens), Q96DZ1 (protein) LLEPLFKQSSCSYRIESYWTYEVCHGKHIRQYHEEKETGQKINIHEYYLGNMLAKNLLFEKEREAEEKEKSNEIPTKNIEGQMTPYYPVGMGNGTPCSLKQNRPRSSTVMYICHPESKHEILSVAEVTTCEYEVVILTPLLCSHPKYRFRA",glycan array binding signal (z-score),[1],1.39
same,glycan array binding signal (z-score),[2],-0.3
same,glycan array binding signal (z-score),[3],-1.09
same,glycan array binding signal (z-score),[4],-0.276
same,glycan array binding signal (z-score),[5],0.873
same,glycan array binding signal (z-score),[6],1.26
same,glycan array binding signal (z-score),[7],0.711
same,glycan array binding signal (z-score),[8],-0.61
same,glycan array binding signal (z-score),[9],0.981
same,glycan array binding signal (z-score),[10],-0.496
same,glycan array binding signal (z-score),[11],-0.682
same,glycan array binding signal (z-score),[12],-0.198
same,glycan array binding signal (z-score),[13],-0.136
same,glycan array binding signal (z-score),[14],0.302
same,glycan array binding signal (z-score),[15],-1.07
same,glycan array binding signal (z-score),[16],-1.09
same,glycan array binding signal (z-score),[17],1.47
same,glycan array binding signal (z-score),[18],0.763
same,glycan array binding signal (z-score),[19],0.057
same,glycan array binding signal (z-score),[20],-0.455
same,glycan array binding signal (z-score),[21],-0.572
same,glycan array binding signal (z-score),[22],2.04
same,glycan array binding signal (z-score),[23],-0.59
same,glycan array binding signal (z-score),[24],-0.736
same,glycan array binding signal (z-score),[25],-0.259
same,glycan array binding signal (z-score),[26],-0.37
same,glycan array binding signal (z-score),[27],-0.388
same,glycan array binding signal (z-score),Neu5Ac(a2-6)GalNAc,0.836
same,glycan array binding signal (z-score),[28],-0.824
same,glycan array binding signal (z-score),[29],-0.093
same,glycan array binding signal (z-score),[30],-0.758

# Reprinted from the listing for reference:
binder,measurement,setting,value
"XTP3-B-MRH1 (Homo sapiens), Q96DZ1 (protein) LLEPLFKQSSCSYRIESYWTYEVCHGKHIRQYHEEKETGQKINIHEYYLGNMLAKNLLFEKEREAEEKEKSNEIPTKNIEGQMTPYYPVGMGNGTPCSLKQNRPRSSTVMYICHPESKHEILSVAEVTTCEYEVVILTPLLCSHPKYRFRA",glycan array binding signal (z-score),[5],0.873
same,glycan array binding signal (z-score),[6],1.26
